Experimental data taken from patent US20260240994A1 (MAYO FOUNDATION FOR MEDICAL EDUCATION AND RESEARCH, published 2026).
Results are given in words; binding and its absence hold for the method and conditions named. Some binding calls cover weakened binding; strength is not graded here.

Amino acid sequences for entries named in this document (tags omitted). Residues count along the entry.
UniProt F1PAA9, residues 157-885: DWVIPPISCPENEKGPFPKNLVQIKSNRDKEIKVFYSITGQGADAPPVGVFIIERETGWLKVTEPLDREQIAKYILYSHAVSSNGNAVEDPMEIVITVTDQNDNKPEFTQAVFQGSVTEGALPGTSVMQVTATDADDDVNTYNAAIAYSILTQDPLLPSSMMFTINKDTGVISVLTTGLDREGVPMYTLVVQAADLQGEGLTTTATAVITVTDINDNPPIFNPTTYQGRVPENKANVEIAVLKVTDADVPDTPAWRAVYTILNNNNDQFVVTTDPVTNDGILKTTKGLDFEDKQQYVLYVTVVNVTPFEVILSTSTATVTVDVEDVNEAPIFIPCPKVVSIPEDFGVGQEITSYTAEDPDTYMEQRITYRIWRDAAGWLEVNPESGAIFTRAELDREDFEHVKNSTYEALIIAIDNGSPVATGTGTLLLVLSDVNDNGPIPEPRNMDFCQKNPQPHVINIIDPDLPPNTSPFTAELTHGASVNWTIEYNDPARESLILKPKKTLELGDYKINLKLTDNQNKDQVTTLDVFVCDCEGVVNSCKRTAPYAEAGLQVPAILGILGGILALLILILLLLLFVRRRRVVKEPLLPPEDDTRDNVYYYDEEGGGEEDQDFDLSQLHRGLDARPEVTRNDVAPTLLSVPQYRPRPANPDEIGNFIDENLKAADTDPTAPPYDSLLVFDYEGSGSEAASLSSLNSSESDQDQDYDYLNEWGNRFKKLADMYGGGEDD
UniProt P12830, residues 155-707: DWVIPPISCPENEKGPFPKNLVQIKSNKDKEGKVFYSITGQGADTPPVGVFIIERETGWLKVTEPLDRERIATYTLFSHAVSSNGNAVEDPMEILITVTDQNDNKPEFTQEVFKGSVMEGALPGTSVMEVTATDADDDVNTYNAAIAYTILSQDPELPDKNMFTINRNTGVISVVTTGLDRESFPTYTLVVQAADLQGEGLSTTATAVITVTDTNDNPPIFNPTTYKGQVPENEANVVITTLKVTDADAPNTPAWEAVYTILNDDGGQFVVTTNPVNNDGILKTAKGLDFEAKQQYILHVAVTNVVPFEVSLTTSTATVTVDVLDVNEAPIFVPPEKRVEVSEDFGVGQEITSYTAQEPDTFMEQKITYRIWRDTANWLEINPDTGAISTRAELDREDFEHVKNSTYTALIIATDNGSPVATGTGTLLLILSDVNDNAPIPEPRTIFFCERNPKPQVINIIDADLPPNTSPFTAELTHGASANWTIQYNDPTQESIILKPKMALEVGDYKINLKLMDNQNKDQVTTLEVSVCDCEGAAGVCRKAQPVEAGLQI

Legend:
canine Ecad (canine) [1] = molecular target: canine Ecad (canine) (UniProt F1PAA9); assay: phage display with Ecad selection (legend of FIG. 23A)
human Ecad (human) [2] = molecular target: human Ecad (human) (UniProt P12830); assay: as above
canine Ecad (canine) [3] = molecular target: canine Ecad (canine) (UniProt F1PAA9); assay: phage display selection; phage ELISA and CAR T killing cited for mouse
human Ecad (human) [4] = molecular target: human Ecad (human) (UniProt P12830); assay: as above
canine Ecad (canine) [5] = molecular target: canine Ecad (canine) (UniProt F1PAA9); assay: phage display; FIG. 6 co-culture of canine Ecad+ cells with CAR T cells
human Ecad (human) [6] = molecular target: human Ecad (human) (UniProt P12830); assay: as above

Measured: binding

B1: hmcECAD.6 scFv clone (scFv)
scFv: LPVLTQPPSASGTPGQRVTISCSGSSSNIGSNYVYWYQQLPGTAPKLLIYRNNQRPSGVPDRFSGSKSGTSASLAISGLQSEDEADYYCASWDTSLRAWVFGGGTKLTVLGEGKSSGSGSESKASEVQLVQSGGGLVQPGGSLRLSCAASGFTFSSYSMNWVRQAPGKGLEWVSYISSSSSTIYYVDSVKGRFTISRDNAKNSLYLQMDSLRAEDTAVYYCARGGRVLVGALFDYWGQGTLVTVSS
notes: Human scFv from a naive phage display library; also called anti-hmcECAD.6; anti-Ecad scFv
binds: all assays above
